The record followed here is PMC6992617.

Sequences of proteins named here, by UniProt entry; tags and fusion partners are left off. Residues count along the entry.
UniProt P08581, residues 25-1390: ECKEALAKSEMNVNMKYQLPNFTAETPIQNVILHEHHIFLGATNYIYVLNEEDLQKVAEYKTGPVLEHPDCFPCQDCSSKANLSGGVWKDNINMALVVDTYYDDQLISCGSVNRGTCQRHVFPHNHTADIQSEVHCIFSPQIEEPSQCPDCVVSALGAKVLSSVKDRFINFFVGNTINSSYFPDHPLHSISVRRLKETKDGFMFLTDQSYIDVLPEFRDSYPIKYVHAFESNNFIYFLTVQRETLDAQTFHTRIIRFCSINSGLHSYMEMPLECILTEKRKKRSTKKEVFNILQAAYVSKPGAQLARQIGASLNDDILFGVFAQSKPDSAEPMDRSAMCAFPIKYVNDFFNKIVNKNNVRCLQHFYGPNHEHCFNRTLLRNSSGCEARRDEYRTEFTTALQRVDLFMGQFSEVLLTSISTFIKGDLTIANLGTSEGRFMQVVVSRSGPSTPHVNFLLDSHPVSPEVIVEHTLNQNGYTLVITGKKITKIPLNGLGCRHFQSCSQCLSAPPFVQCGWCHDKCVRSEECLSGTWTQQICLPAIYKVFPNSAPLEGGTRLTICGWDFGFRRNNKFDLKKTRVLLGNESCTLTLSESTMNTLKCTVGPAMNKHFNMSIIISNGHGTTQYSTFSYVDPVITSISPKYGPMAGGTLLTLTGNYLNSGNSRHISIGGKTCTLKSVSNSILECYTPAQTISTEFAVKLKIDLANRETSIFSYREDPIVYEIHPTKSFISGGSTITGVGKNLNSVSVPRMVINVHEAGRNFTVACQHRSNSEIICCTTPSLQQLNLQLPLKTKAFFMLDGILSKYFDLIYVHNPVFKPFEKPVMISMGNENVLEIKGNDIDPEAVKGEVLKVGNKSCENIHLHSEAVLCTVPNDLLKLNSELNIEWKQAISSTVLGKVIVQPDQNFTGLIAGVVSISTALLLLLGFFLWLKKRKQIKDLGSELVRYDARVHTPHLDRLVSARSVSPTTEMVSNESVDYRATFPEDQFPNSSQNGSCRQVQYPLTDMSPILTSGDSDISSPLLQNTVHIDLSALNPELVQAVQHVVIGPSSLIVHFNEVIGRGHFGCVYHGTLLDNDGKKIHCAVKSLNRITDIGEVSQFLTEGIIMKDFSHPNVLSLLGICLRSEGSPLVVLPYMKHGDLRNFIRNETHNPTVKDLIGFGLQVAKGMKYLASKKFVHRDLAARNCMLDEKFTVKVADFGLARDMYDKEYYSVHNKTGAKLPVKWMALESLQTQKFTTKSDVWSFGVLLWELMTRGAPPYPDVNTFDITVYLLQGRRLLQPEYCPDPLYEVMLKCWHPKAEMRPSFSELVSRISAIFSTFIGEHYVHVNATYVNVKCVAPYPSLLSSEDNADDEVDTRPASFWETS

Results are given in words; binding and its absence hold for the method and conditions named. In cells and extracts the contact can be indirect. Some binding calls cover weakened binding; strength is not graded here.

For the assay, the target named is mesenchymal-epithelial transition factor (human (endogenous in LN229R, U87MGR and HG9R)) (UniProt P08581). Description: cross-linking; lysates (1% Triton X-100 buffer) of TMZ-resistant glioma cells treated with or without BIP-MPC-NP; with or without 150 nM EGF and 100 ng/mL HGF for 30 min at room temperature; 40 mM glutaraldehyde for 1 min, stopped with 0.2 M glycine; 6% SDS-PAGE and Western blot.

Regarding “mesenchymal-epithelial transition factor (from UniProt P08581 25-1390) (receptor)”, the binding entry is listed as “binds”.
